Consider one substance from paper PMC5719040.

By UniProt entry, the sequences of proteins in these tests, tags left out. Residues count along the entry.
UniProt P31422, residues 23-879: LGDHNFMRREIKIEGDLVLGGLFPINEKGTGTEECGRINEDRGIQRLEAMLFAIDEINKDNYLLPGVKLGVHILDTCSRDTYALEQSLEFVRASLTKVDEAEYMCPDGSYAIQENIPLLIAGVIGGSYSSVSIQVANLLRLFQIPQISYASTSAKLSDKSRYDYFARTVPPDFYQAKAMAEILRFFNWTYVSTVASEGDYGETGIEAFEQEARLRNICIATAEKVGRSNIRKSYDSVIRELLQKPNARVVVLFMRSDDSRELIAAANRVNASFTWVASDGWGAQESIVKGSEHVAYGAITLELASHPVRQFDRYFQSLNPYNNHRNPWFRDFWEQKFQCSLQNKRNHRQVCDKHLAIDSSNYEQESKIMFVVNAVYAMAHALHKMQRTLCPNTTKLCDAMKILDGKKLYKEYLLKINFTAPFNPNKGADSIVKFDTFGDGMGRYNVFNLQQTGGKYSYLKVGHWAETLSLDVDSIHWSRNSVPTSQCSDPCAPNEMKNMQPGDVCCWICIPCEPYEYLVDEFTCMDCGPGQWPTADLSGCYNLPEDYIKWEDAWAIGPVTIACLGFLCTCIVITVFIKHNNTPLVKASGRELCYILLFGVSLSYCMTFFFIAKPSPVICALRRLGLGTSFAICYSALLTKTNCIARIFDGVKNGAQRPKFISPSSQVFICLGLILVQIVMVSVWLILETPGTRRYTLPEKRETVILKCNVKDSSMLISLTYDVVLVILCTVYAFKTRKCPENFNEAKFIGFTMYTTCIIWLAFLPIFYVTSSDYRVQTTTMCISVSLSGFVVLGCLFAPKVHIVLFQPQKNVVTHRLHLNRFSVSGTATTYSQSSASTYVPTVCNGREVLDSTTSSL
UniProt P31423, residues 33-912: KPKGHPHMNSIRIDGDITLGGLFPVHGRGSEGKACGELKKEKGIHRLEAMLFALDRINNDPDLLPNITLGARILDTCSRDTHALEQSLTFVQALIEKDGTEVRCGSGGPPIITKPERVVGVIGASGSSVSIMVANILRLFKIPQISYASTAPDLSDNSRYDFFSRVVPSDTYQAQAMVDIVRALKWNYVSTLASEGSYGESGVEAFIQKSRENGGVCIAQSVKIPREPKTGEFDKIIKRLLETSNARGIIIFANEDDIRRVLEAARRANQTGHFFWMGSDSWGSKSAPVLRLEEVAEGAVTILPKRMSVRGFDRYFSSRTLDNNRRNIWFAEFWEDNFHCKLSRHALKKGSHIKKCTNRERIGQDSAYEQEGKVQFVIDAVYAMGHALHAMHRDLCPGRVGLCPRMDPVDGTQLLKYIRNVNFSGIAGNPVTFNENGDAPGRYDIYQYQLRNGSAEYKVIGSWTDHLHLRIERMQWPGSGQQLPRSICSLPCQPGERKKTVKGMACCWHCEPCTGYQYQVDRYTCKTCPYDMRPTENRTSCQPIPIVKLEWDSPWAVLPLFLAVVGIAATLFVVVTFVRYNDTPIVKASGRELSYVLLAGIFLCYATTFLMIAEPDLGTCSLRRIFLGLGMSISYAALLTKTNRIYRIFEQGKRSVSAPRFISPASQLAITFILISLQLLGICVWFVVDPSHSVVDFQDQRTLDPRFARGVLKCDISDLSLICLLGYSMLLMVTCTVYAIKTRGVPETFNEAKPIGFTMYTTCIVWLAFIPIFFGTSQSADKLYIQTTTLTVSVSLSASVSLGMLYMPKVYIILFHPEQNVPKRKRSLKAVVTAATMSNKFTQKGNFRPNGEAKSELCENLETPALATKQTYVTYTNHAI
UniProt P31421, residues 19-872: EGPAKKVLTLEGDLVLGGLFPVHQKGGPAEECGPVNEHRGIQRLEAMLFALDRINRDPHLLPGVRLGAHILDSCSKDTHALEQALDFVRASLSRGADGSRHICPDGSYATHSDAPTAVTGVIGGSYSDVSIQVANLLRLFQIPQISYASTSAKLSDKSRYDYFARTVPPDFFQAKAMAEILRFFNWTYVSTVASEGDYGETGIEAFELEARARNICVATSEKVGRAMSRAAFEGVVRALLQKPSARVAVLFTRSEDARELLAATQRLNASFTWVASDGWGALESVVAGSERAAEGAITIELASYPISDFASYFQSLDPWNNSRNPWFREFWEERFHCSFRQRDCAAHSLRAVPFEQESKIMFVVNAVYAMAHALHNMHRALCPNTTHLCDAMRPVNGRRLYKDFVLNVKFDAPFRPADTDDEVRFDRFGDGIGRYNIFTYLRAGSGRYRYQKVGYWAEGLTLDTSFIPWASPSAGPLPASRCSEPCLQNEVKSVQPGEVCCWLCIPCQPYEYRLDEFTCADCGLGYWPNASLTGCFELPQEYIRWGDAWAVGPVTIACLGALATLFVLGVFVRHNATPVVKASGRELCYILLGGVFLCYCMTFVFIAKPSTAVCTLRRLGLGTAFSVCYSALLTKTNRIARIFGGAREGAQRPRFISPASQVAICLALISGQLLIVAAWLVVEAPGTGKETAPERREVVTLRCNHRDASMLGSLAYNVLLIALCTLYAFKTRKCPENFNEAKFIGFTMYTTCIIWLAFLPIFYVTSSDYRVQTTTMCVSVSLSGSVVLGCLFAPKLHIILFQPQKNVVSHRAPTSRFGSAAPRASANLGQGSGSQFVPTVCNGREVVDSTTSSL

In assay [1] the target is rat SNAP-tagged mGlu3 (rat) (UniProt P31422). In words: FRET or BRET; TR-FRET on HEK-293 cells cotransfected with rat SNAP-mGlu3 or SNAP-mGlu4 (labelled with SNAP-Lumi4-Tb), HA-tagged mGlu2 and EAAC1; the mGlu2 subunit is reported by the c-Myc-tagged mGlu2-specific nanobody DN1 and 200 nM anti-c-Myc-d2; with 100 µM LY341495 or 100 µM glutamate; Krebs buffer. For orientation: BRET reads energy transfer from a luciferase to a nearby fluorophore.

Assay [2] deals with rat SNAP-tagged mGlu4 (rat) (UniProt P31423). The assay is described as above.

Results are given in words; binding and its absence hold for the method and conditions named. Binding seen in cells or lysates may run through a third protein. Some binding calls cover weakened binding; strength is not graded here.

Take “rat mGlu2 subunit, HA-tagged (no SNAP tag) (from UniProt P31421 19-872) (receptor)”: the binding result in assay [1] and in assay [2] was “binds” in each case.
